One assay has as its system zebrafish embryos. Particulars: embryos treated from 6 hpf.
The next assay concerns VEGFRs. Particulars: 1 μM.
The next assay has as its system Wnt/β-catenin signaling. In words: TOPFlash reporter assay in 293FT cells. In kind it is cell-based, human. Particulars: 24 hours. The procedure: TOPFlash assay was performed in 96-well plate. For each well, 293T cells were transfected with 0.22 μg TOPFlash (or FOPFlash with mutant TCF binding sites) and 0.02 μg pRL-SV40P using lipofectamine 3000. For co-transfection with other plasmids, 0.1 μg additional DNA was used. […] The luciferase activity was measured 24 hours later by using Dual-Glo® Luciferase Assay System (Promega, E2940) according to the recommended protocol. The TOPFlash or FOPFlash activity was normalized to Renilla luciferase signals.
TOPFlash assay was performed as described above. Briefly, for each well of a 96-well plate 293FT cells were transfected with 0.22 μg TOPFlash (or FOPFlash with mutant TCF binding sites) and 0.02 μg pRL-SV40P using lipofectamine 3000. For co-transfection with other plasmids, 0.1 μg additional DNA was used. Four hours after transfection, 293FT cells were treated with DMSO, 1 μM 6B10 and 1 μM 6B10 together with pazopanib, orlistat and topotecan at varying concentrations for 24 hours. The luciferase activity was then measured using Dual-Glo® Luciferase Assay System (Promega, E2940) according to the recommended protocol. The TOPFlash or FOPFlash activity was normalized to Renilla luciferase signals.

SMILES strings stand for the structures.

Data on one compound can be found in patent publication US20180344715A1, “WNT/BETA-CATENIN SIGNAL TRANSDUCTION INHIBITORS AND THEIR USE IN TREATMENT OR PREVENTION OF DISEASES AND CONDITIONS LINKED WITH SAID TRANSDUCTION” (BERGEN TEKNOLOGIOVERFORING AS, priority 2015, published 2018).

In the case of `CNC(=O)c1ccccc1Sc1ccc2c(/C=C/c3ccccn3)n[nH]c2c1` [axitinib, N-Methyl-2-[[3-[(E)-2-pyridin-2-ylethenyl]-1H-indazol-6-yl]sulfanyl]benzamide], the “rescue of eyeless phenotype generated by GSK3β inhibition” value in the assay with zebrafish embryos is “dose-dependently and totally rescued”. Also, the “inhibition of VEGFRs, in vitro kinase activity” value in the assay with VEGFRs is “confirmed”. Besides, in the assay on Wnt/β-catenin signaling (293FT cells overexpressing β-catenin-4A (Ser33A/Ser37A/Thr41A/Ser45A)), the “Wnt inhibition (TOPFlash) in cells overexpressing β-catenin-4A” value was “Wnt inhibition by axitinib was confirmed”. Also, in the assay with Wnt/β-catenin signaling (293FT cells, 6BIO 1 μM, 460 FDA approved drugs at 10 μM), the “inhibition of Wnt/β-catenin signaling activated by GSK3β inhibitor 6BIO, reporter based screening of FDA approved drugs” value is reported as “strongest inhibition”.
